Entries after “also recorded” stand apart in the source; their conditions may differ.
Test system: L1210 cells
Assay: Localization of cMOAT polypeptides in L1210 cells (confocal microscopy of GFP fusions, immunofluorescence of untagged protein)
Type: cell-based, mouse
Method: The cMOAT-gfp and MRP1-gfp constructs supra (1 μg of DNA per transfection) were separately transfected into MDCK cells and L1210 cells using a UpofectAMINE transfection kit (Life Technologies, Inc.). Transfections of MDCK cells were carried out using Transwell plates (Costar, 24 mm×3 μm polycarbonate membrane) to enable cell polarization. Cells were imaged using a NikonTE300 inverted microscope linked to a Radiance 2000 Laser Scanning System for confocal microscopy and Lasersharp 2000 imaging software (Bio-Rad).
Detection and localization of untagged mutant cMOAT lacking the T-K-F motif (i.e. ΔcMOAT) was achieved by immunofluorescence, using the antibody M2 III6 (Kamiya Pty Ltd). 2×10^5 cells were washed with PBSF (phosphate-buffered saline supplemented with 2.5% fetal bovine serum). The cells were permeabilized using digitonin (5 μg/ml) and incubated at room temperature for 15 min. The cells were then washed three times with PBSF and then incubated with the primary antibody (2 μg) for 1 hr at room temperature before being washed twice with PBSF. The cells were incubated with fluorescein isothiocyanate-conjugated F(ab′)2 (Silenus, Hawthorn, Victoria, Australia) (1:80 dilution) for 30 min at room temperature. Finally, the cells were washed three times and resuspended in PBSF ready for immediate confocal microscopy.
(§1) The modified MDR3-gfp construct (1 μg of DNA per transfection) is transfected into MDCK cells and L1210 cells using a LipofectAMINE transfection kit (Life Technologies, Inc.). Transfections of MDCK cells are carried out using Transwell plates (Costar, 24 mm×3 μm polycarbonate membrane) to enable cell polarization. Cells are imaged using a NikonTE300 inverted microscope linked to a Radiance 2000. Laser Scanning System for confocal microscopy and Lasersharp 2000 imaging software (Bio-Rad).
as §1, with “MRP4-gfp” for “MDR3-gfp”, “μl” for “μg”, “2000” for “2000.”

[1] = without GFP tag, stably expressing L1210 cells, immunofluorescence with M2 III6 antibody
[2] = Examples 5 and 6, tag not stated at the place

cMOAT: native human canalicular multispecific organic anion transporter (MRP2) [reference compound]
localization in L1210 cells [1]: detected intracellularly; also recorded: detected in intracellular vesicles surrounding the nucleus

modified MDR3 polypeptide: modified human MDR3 polypeptide lacking the T-K-F motif (terminal 4 amino acids deleted)
localization in L1210 cells [2]: found in the plasma membrane

ΔcMOAT: modified human cMOAT polypeptide wherein the C-terminal T-K-F motif was deleted, without a GFP tag
localization in L1210 cells [1]: detected in the cell membrane

B1: modified MRP4 polypeptide: modified human MRP4 polypeptide lacking the T-K-F motif (terminal 3 amino acids deleted) (protein, listed as Homo sapiens)
chain: MLPVYQEVKPNPLQDANLCSRVFFWWLNPLFKIGHKRRLEEDDMYSVLPEDRSQHLGEELQGFWDKEVLRAENDAQKPSLTRAIIKCYWKSYLVLGIFTLIEESAKVIQPIFLGKIINYFENYDPMDSVALNTAYAYATVLTFCTLILAILHHLYFYHVQCAGMRLRVAMCHMIYRKALRLSNMAMGKTTTGQIVNLLSNDVNKFDQVTVFLHFLWAGPLQAIAVTALLWMEIGISCLAGMAVLIILLPLQSCFGKLFSSLRSKTATFTDARIRTMNEVITGIRIIKMYAWEKSFSNLITNLRKKEISKILRSSCLRGMNLASFFSASKIIVFVTFTTYVLLGSVITASRVFVAVTLYGAVRLTVTLFFPSAIERVSEAIVSIRRIQTFLLLDEISQRNRQLPSDGKKMVHVQDFTAFWDKASETPTLQGLSFTVRPGELLAVVGPVGAGKSSLLSAVLGELAPSHGLVSVHGRIAYVSQQPWVFSGTLRSNILFGKKYEKERYEKVIKACALKKDLQLLEDGDLTVIGDRGTTLSGGQKARVNLARAVYQDADIYLLDDPLSAVDAEVSRHLFELCICQILHEKITILVTHQLQYLKAASQILILKDGKMVQKGTYTEFLKSGIDFGSLLKKDNEESEQPPVPGTPTLRNRTFSESSVWSQQSSRPSLKDGALESQDTENVPVTLSEENRSEGKVGFQAYKNYFRAGAHWIVFIFLILLNTAAQVAYVLQDWWLSYWANKQSMLNVTVNGGGNVTEKLDLNWYLGIYSGLTVATVLFGIARSLLVFYVLVNSSQTLHNKMFESILKAPVLFFDRNPIGRILNRFSKDIGHLDDLLPLTFLDFIQTLLQVVGVVSVAVAVIPWIAIPLVPLGIIFIFLRRYFLETSRDVKRLESTTRSPVFSHLSSSLQGLWTIRAYKAEERCQELFDAHQDLHSEAWFLFLTTSRWFAVRLDAICAMFVIIVAFGSLILAKTLDAGQVGLALSYALTLMGMFQWCVRQSAEVENMMISVERVIEYTDLEKEAPWEYQKRPPPAWPHEGVIIFDNVNFMYSPGGPLVLKHLTALIKSQEKVGIVGRTGAGKSSLISALFRLSEPEGKIWIDKILTTEIGLHDLRKKMSIIPQEPVLFTGTMRKNLDPFNEHTDEELWNALQEVQLKETIEDLPGKMDTELAESGSNFSVGQRQLVCLARAILRKNQILIIDEATANVDPRTDELIQKKIREKFAHCTVLTIAHRLNTIIDSDKIMVLDSGRLKEYDEPYVLLQNKESLFYKMVQQLGKAEAAALTETAKQVYFKRNYPHIGHTDHMVTNTSNGQPSTLTIFE
localization in L1210 cells [2]: found in the plasma membrane

From patent US20040091964A1, “Modified proteins, isolated novel peptides,and uses thereof” (priority 2003, published 2004)
